Test [1] deals with Skp(A108R) (E. coli) (UniProt P0AEU7). Nature of the test: solution NMR (signal intensities of monomer and trimer); Skp variants alone at 37°C, 20 mM MES pH 6.5, 150 mM NaCl; monomer to trimer; both purified.
Test [2] has the same target. The test is described as follows: SEC-MALS; Skp variants alone, elution concentration ≃80 μM, 25°C, 20 mM MES pH 6.5, 150 mM NaCl; monomer to trimer; both purified. Background: SEC sorts molecules by how far they enter the pores of the column.
Test [3] shares this target. Nature of the test: solution NMR (signal intensities of monomer and trimer) + SEC-MALS; fraction of monomer against total Skp concentration, 25°C, 20 mM MES pH 6.5, 150 mM NaCl; monomer to trimer; C0.5 is the protein concentration at which half of the molecules are monomeric; both purified.

These are yes or no findings as the source states them, for the method shown.

B1: Skp(A108R) (natural protein, E. coli, UniProt P0AEU7 21-161, looked up)
chain: ADKIAIVNMGSLFQQVAQKTGVSNTLENEFKGRASELQRMETDLQAKMKKLQSMKAGSDRTKLEKDVMAQRQTFAQKAQAFEQDRARRSNEERGKLVTRIQTAVKSVRNSQDIDLVVDANAVAYNSSDVKDITADVLKQVK
notes: Fully monomeric up to 1 mM; source: E. coli BL21-(λ DE3)-Lemo, purified (Ni-NTA, SEC); not shown: His6, N-terminal, kept
Turning to B1, the binding result with Skp(A108R) (E. coli) [1] is on record as “no binding”; in the test with Skp(A108R) (E. coli) [2] it was “no binding (tested: ≃80 μM)”; with Skp(A108R) (E. coli) [3], “no binding (tested: up to 1 mM; C0.5 >1000 μM)”.

These data come from article PMC7577714, “Regulation of chaperone function by coupled folding and oligomerization” (Science Advances, 2020).
